{"source": "PubChem BioAssay AID493014", "about": "(National Center for Advancing Translational Sciences (NCATS), 2011)", "note": "Out of some 340,000 compounds screened, about 170 (0.05%) were called active. The shares of active, inactive and inconclusive entries below differ from those in the screen. The call rests on the fitted dose curve; in most records, active means well fitted inhibition curve with a large enough effect in the signal ratio, with a control signal flat (not every such curve was filed as active); inconclusive means small, poorly fitted or top-dose-only effect, or effect the other way, or a change in a side signal; inactive means flat fitted curve, though single readings scatter; the % refers to the signal ratio. A potency beside an inconclusive call is a rough fit, not a confirmed value. Potency means the concentration at half of the fitted maximal effect."}
{"assay": "qHTS Assay to Find Inhibitors of Chronic Active B-Cell Receptor Signaling;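 on activity change, negative = inhibition: plate controls were basal doxycycline-induced cells for no effect and cells given 10 µM MG132 for full effect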", "conditions": "ABC-DLBCL IkBa-CBG/CBR reporter, luminescence ratio (green luciferase fused to IkBa over red control in TMD8 lymphoma cells), 4 h; activity change, negative = inhibition: at 46.1 µM (top of the series) unless noted", "outline": "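Compounds up to 46 uM were incubated four hours with TMD8 cells whose green CBG68 luciferase is fused to IkappaBalpha; red CBR luminescence normalised the signal, and concentration-effect curves were fitted to fusion, red and ratio data.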"}
{"compound": "CCOc1ccc2oc(-c3ccccc3)c(C(=O)N(C)C)c2c1", "activity change, negative = inhibition": "inconclusive: 21.4%"}
{"compound": "CN(C)CCCN1C(=O)C(=O)/C(=C(/O)c2ccncc2)C1c1cccc(Br)c1", "note": "(stereo unspecified)", "activity change, negative = inhibition": "inconclusive: 2.24%"}
{"compound": "Cc1[nH]c2ccccc2c1C(=O)C(=O)N1CCN(c2ccccc2)CC1", "activity change, negative = inhibition": "inconclusive: -7.03%"}
{"compound": "COc1ccc(/C=C/C2=CC(C)(C)NC(=S)N2)cc1", "Potency": "inconclusive: 22.4 µM [falling, single point]"}
{"compound": "CC[C@@H](C)[C@@H]1CN([C@@H](C)CN2CCC[C@H]2CN2C(N)=NC[C@@H]2Cc2ccccc2)C(=N)N1CCCC1CCCC1", "activity change, negative = inhibition": "inactive"}
{"compound": "CN(CC1COc2ccccc2O1)C(=S)Nc1ccccc1F", "note": "(stereo unspecified)", "activity change, negative = inhibition": "inconclusive: 0.68%"}
{"compound": "O=C(Nc1ccc(S(=O)(=O)N2CCOCC2)cc1)c1c(F)cccc1F", "activity change, negative = inhibition": "inconclusive: -15.6%"}
{"compound": "Cc1ccc2nc(SCCC#N)nc(C)c2c1", "activity change, negative = inhibition": "inconclusive: 21.1%"}
{"compound": "COc1cccc(NC(=O)NCCc2ccc(Cl)cc2)c1", "Potency": "inconclusive: 35.5 µM [falling, partial curve, poor fit]"}
{"compound": "O=S(=O)(Nc1ncnc2sc3c(c12)CCC3)c1ccc2ccccc2c1", "Potency": "inconclusive: 5.8 µM [falling, full curve]"}
{"compound": "C/C(CC(=O)Nc1cccc(Cl)c1)=N\\NC(=O)Cc1ccc(Cl)cc1", "activity change, negative = inhibition": "inactive"}
{"compound": "COc1ccc(NC(=O)CSc2n[nH]c(=O)n2Cc2ccccc2)cc1Cl", "activity change, negative = inhibition": "inactive"}
{"compound": "Cc1c(NC(=O)c2ccc(Br)o2)cccc1C(=O)O", "Potency": "inconclusive: 0.291 µM [falling, full curve, poor fit]"}
{"compound": "CCOc1ccccc1NC(=O)NC1CC2CCCC(C1)N2Cc1nnnn1CCc1ccccc1", "note": "(stereo unspecified)", "activity change, negative = inhibition": "inconclusive: 2.37%"}
{"compound": "Cc1cccc(OCCN2C(=O)C(=O)c3cc(C)ccc32)c1", "activity change, negative = inhibition": "inconclusive: -23.5%"}
{"compound": "Cc1cnc(NC(=O)c2ccco2)s1", "activity change, negative = inhibition": "inconclusive: -2.09%"}
{"compound": "CCOc1ccc(NC(=O)NCc2cccnc2)cc1", "activity change, negative = inhibition": "inconclusive: -15.1%"}
{"compound": "Cc1ccc2nsnc2c1S(=O)(=O)N1CCCC1", "activity change, negative = inhibition": "inconclusive: -0.0535%"}
{"compound": "CCOC(=O)[C@H]1[C@H]2COc3cc(OC)ccc3[C@@H]2N2C(=O)N(c3ccc(Cl)cc3)C(=O)[C@@]12C", "activity change, negative = inhibition": "inactive"}
{"compound": "O=C1CC(N(CCc2ccccc2)C(=S)Nc2cc(Cl)ccc2Cl)C(=O)N1c1c(Cl)cccc1Cl", "note": "(stereo unspecified)", "activity change, negative = inhibition": "inconclusive: 7.74%"}
{"compound": "CC1C(=O)N2CCCc3cc(S(=O)(=O)N4CCN(c5ccccc5F)CC4)cc1c32", "note": "(stereo unspecified)", "activity change, negative = inhibition": "inactive"}
{"compound": "O=Cc1cn(-c2ccccc2)nc1-c1cc2ccccc2oc1=O", "activity change, negative = inhibition": "inconclusive: 6.38%"}
{"compound": "Cc1ccc(C(=O)CNc2ccc(C)cc2C)cc1", "activity change, negative = inhibition": "inactive"}
{"compound": "Clc1ccc(Cn2c(-c3cccnc3Cl)nc3ccccc32)cc1", "activity change, negative = inhibition": "inactive"}
{"compound": "S=C(NCCc1ccc(Cl)cc1)NC1CC1", "activity change, negative = inhibition": "inactive"}
{"compound": "Cc1onc(-c2ccccc2)c1C(=O)N1CC(C)OC(C)C1", "note": "(stereo unspecified)", "activity change, negative = inhibition": "inconclusive: 5.2%"}
{"compound": "Cc1ccc(NC(=O)c2cc(S(=O)(=O)N3CCOCC3)cn2C)cc1F", "activity change, negative = inhibition": "inconclusive: 5.34%"}
{"compound": "CC(NS(=O)(=O)c1cc(C(F)(F)F)ccc1Cl)C(=O)N(C)C1CCN(C)CC1", "note": "(stereo unspecified)", "activity change, negative = inhibition": "inactive"}
{"compound": "CCOc1cnn(-c2ccccc2)c(=O)c1Cl", "activity change, negative = inhibition": "inconclusive: -2.03%"}
{"compound": "CC(C)OC(=O)c1cc(C(=O)c2cc(F)ccc2O)coc1=N", "activity change, negative = inhibition": "inconclusive: -6.98%"}
{"compound": "Cn1nc(C(=O)Nc2nc(-c3ccccn3)cs2)c2ccccc2c1=O", "activity change, negative = inhibition": "inconclusive: 12.2%"}
{"compound": "CC(=O)Nc1ccc(N2CCCC(C)C2)c([N+](=O)[O-])c1", "note": "(stereo unspecified)", "activity change, negative = inhibition": "inactive"}
{"compound": "Cc1ccccc1C(=O)NNC(=O)C(=O)Nc1cccc(Cl)c1C", "Potency": "inconclusive: 28.2 µM [falling, single point]"}
{"compound": "O=C(/C=C/c1cccs1)Nc1ccc([N+](=O)[O-])cc1", "Potency": "inconclusive: 14.6 µM [falling, partial curve, poor fit]"}
{"compound": "Cc1csc(NC(=O)C2COc3ccccc3O2)n1", "note": "(stereo unspecified)", "Potency": "inconclusive: 0.411 µM [rising, full curve, poor fit]"}
{"compound": "Cn1c(=O)c2nc(SCC(=O)Nc3ccc(Cl)c(Cl)c3)n(C)c2n(C)c1=O", "activity change, negative = inhibition": "inactive"}
{"compound": "COc1ccc(Cc2nnc(SC(C)C(=O)Nc3ccc(C(N)=O)cc3)o2)cc1", "note": "(stereo unspecified)", "activity change, negative = inhibition": "inconclusive: 3.66%"}
{"compound": "CS(=O)(=O)N(CC(=O)Nc1ccc(S(=O)(=O)N2CCOCC2)cc1)c1ccccc1Br", "activity change, negative = inhibition": "inconclusive: 2.48%"}
{"compound": "O=C(CN(c1ccc(Cl)c(Cl)c1)S(=O)(=O)c1ccccc1)N1CCc2ccccc2C1", "activity change, negative = inhibition": "inconclusive: 10.7%"}
{"compound": "c1ccc(C2CC(c3cccs3)=NN2c2ccccc2)cc1", "note": "(stereo unspecified)", "activity change, negative = inhibition": "inconclusive: 23.1%"}
{"compound": "CCCCC(CC)CN=C(N)NC(N)=NCCCCCCN=C(N)NC(N)=NCC(CC)CCCC", "note": "(stereo unspecified)", "activity change, negative = inhibition": "inconclusive: 1.95%"}
{"compound": "CCCCCCCC(=O)N/N=C/c1ccco1", "activity change, negative = inhibition": "inconclusive: 14.5%"}
{"compound": "FC(F)(F)c1ccc(-c2noc(CN3CCCN(C4CCCCC4)CC3)n2)cc1", "activity change, negative = inhibition": "inactive"}
{"compound": "COc1ccc(/C=C/C(=O)NCC(=O)N/N=C/c2cc(Br)ccc2OCc2ccccc2)cc1", "activity change, negative = inhibition": "inconclusive: 8.6%"}
{"compound": "O=C(CSc1nc2ccccc2[nH]1)N=Nc1c(O)[nH]c2ccccc12", "Potency": "inconclusive: 29.1 µM [falling, single point]"}
{"compound": "Cc1ccc(/C=N\\NC(=O)C2COc3cc4ccccc4cc3O2)o1", "note": "(stereo unspecified)", "Potency": "inconclusive: 35.5 µM [rising, single point]"}
{"compound": "O=C(Nc1cccc(-c2ccc(N3CCOCC3)nn2)c1)c1ccc([N+](=O)[O-])cc1", "Potency": "inconclusive: 0.461 µM [falling, full curve, poor fit]"}
{"compound": "N/C(=N\\OC(=O)CC1CCCCC1)c1cccnc1", "activity change, negative = inhibition": "inconclusive: -5.08%"}
{"compound": "COc1ccc2nc(SCc3ccccc3)nc(C)c2c1", "activity change, negative = inhibition": "inconclusive: 9.06%"}
{"compound": "COc1ccc2oc(C(=O)N3CCN(C(=O)c4ccco4)CC3)c(C)c2c1", "Potency": "inconclusive: 20.6 µM [falling, partial curve]"}
{"compound": "S=C(NCc1ccco1)N1CCN(C/C=C/c2ccccc2)CC1", "activity change, negative = inhibition": "inconclusive: -3.63%"}
{"compound": "Cc1ccc(-n2[nH]c(C)c(C=Nc3ccc(S(=O)(=O)Nc4nccs4)cc3)c2=O)cc1", "activity change, negative = inhibition": "inconclusive: -1.85%"}
{"compound": "CCc1ccc(-n2c(SCc3cccc(F)c3)nc3[nH]ncc3c2=O)cc1", "Potency": "inconclusive: 20 µM [falling, single point]"}
{"compound": "O=C(Nc1ccc(N2CCN(C(=O)c3ccccc3)CC2)cc1)c1ccc(Br)o1", "activity change, negative = inhibition": "inactive"}
{"compound": "Cc1n[nH]c(=S)n(/N=C/c2ccccn2)c1=O", "activity change, negative = inhibition": "inconclusive: 12.5%"}
{"compound": "COc1ccccc1CCc1nnc(CCC(=O)NCC[C@@H]2C[C@@H]3C=C[C@H]2C3)o1", "activity change, negative = inhibition": "inactive"}
{"compound": "O=C(CN1CCCCCC1)Nc1ccccc1F", "activity change, negative = inhibition": "inconclusive: 7.17%"}
{"compound": "O=C(CNC(=O)c1ccccc1F)OCC(=O)N1CCCCC1", "activity change, negative = inhibition": "inconclusive: 13.4%"}
{"compound": "CSc1ccccc1-c1nnc(-c2ccc(Cl)cc2Cl)o1", "activity change, negative = inhibition": "inconclusive: 2.16%"}
{"compound": "CN(CC(=O)Nc1ccc(Cl)c(Cl)c1)C(=O)C1CCC1", "activity change, negative = inhibition": "inactive"}
{"compound": "Cc1ccc(S(=O)(=O)NCC23C=CC(O2)C2C(=O)N(c4ccccc4)C(=O)C23)cc1", "note": "(stereo unspecified)", "activity change, negative = inhibition": "inactive"}
{"compound": "CC(=O)c1cccc(NC(=O)C(C)OC(=O)c2ccc(Br)o2)c1", "note": "(stereo unspecified)", "activity change, negative = inhibition": "inconclusive: 1.52%"}
{"compound": "CCCCNCC#CCOc1cc(C)ccc1C(C)C", "Potency": "inconclusive: 22.4 µM [falling, single point]"}
{"compound": "O=C(NNC(=S)Nc1ccccc1C(F)(F)F)c1ccc(Br)o1", "Potency": "inconclusive: 20 µM [falling, partial curve]"}
{"compound": "Nc1ccccc1SCC(=O)Nc1cccc2ccccc12", "Potency": "inconclusive: 5.62 µM [falling, full curve]"}
{"compound": "O=C(CC(=O)c1ccccc1)Nc1ccccc1C(F)(F)F", "activity change, negative = inhibition": "inconclusive: -0.869%"}
{"compound": "O=C(CSc1ccc2nnc(CCNS(=O)(=O)c3ccccc3)n2n1)Nc1nc2ccccc2s1", "Potency": "inconclusive: 18.4 µM [falling, partial curve, poor fit]"}
{"compound": "CC(NC(=O)C1CCN(S(=O)(=O)c2ccc3nc4c(c(C(=O)O)c3c2)CCCC4)CC1)c1ccccc1", "note": "(stereo unspecified)", "Potency": "inconclusive: 0.562 µM [falling, full curve, poor fit]"}
{"compound": "Cc1cccc2cc(C#N)c(N3CCC(O)CC3)nc12", "activity change, negative = inhibition": "inconclusive: -7.16%"}
{"compound": "COc1ccc(CNS(=O)(=O)c2ccc(OC)cc2)cc1", "activity change, negative = inhibition": "inconclusive: -0.027%"}
{"compound": "Cc1ccc(NC(=O)COC(=O)C2(c3ccc(Cl)cc3)CCCC2)cc1", "activity change, negative = inhibition": "inconclusive: 6.91%"}
{"compound": "Cc1cccc(NC(=S)NNc2cccc(Cl)c2)c1", "Potency": "inconclusive: 0.398 µM [falling, partial curve, poor fit]"}
{"compound": "COc1ccc(CCNC(=O)C2CCC(C(C)(C)C)CC2)cc1OC", "note": "(stereo unspecified)", "activity change, negative = inhibition": "inactive"}
{"compound": "COC(=O)CCN(C(=O)C12CC3CC(CC(C3)C1)C2)c1ccccn1", "Potency": "inconclusive: 1.64 µM [falling, partial curve, poor fit]"}
{"compound": "CC1=CCC2C(=O)N(c3nc(C)cc(C)n3)C(=O)C2C1", "note": "(stereo unspecified)", "activity change, negative = inhibition": "inconclusive: 4.74%"}
{"compound": "Cc1ccc(OCCC(=O)OCC(=O)Nc2cc(S(=O)(=O)N(C)C)ccc2C)cc1", "activity change, negative = inhibition": "inconclusive: -25.4%"}
{"compound": "C[C@@]12C(=O)Nc3ccc(F)cc3C(=O)N1[C@H]1c3cc(Br)ccc3OC[C@@H]1[C@@H]2c1ccccc1", "activity change, negative = inhibition": "inconclusive: 6.01%"}
{"compound": "Cc1ccccc1N=C1NC(=O)/C(=C/c2cccn2-c2cccc(C(=O)O)c2)S1", "activity change, negative = inhibition": "inactive"}
{"compound": "COc1ccc(OC)c(N2C(=O)CC(Cc3ccc(C)cc3)C2=O)c1", "note": "(stereo unspecified)", "activity change, negative = inhibition": "inconclusive: 4.23%"}
{"compound": "N#CCCn1cc(/C=N/O)c(-c2ccccc2)n1", "Potency": "inconclusive: 32.6 µM [falling, single point]"}
{"compound": "CC(=O)Nc1sc(NC(=O)c2ccc([N+](=O)[O-])cc2)nc1-c1cccs1", "activity change, negative = inhibition": "inconclusive: 23.5%"}
